No constants are given. Whether binding was seen depends on the method and setting. Binding can be weak; no strength is given.
Target: monkey PD-1 (Acro, Catalog Number: PD-1-C5223) (monkey)
Assay: summary of Example 7 (BLI and flow cytometry)

B1: Ab2005Am08 (antibody, V domains shown)
VH: EVQLVESGGGLVKPGGSLRLSCAASGFTFSNYDMSWVRQAPGKGLEWVSTISGGGRYTYYADSVKGRFTISRDNAKNSLYLQMNSLRAEDTAVYYCVSPYYGMEYWGQGTLVTVSS
VL: DIQLTQSPSFLSASVGDRVTITCKASQDVGTAVAWYQQKPGKAPKLLIYWASTRHTGVPSRFSGSGSGTEFTLTISSLQPEDFATYFCQQYSSYPWTFGGGTKVEIK
notes: also called clone YC215H3 as IgG
For B1, which binding is on record?
The binding was “binds”.

— EP4293046A1 (Shanghai Jemincare Pharmaceuticals Co., Ltd., dated 2023)
